The values that follow come from the supplement of paper PMC8728848.

Assay [1] has as its target Neu5Gc(a2-8)Neu5Gc(a2-6)Gal(b1-4)GlcNAc. The assay can be described thus: glycan array binding signal (z-score within array); higher = stronger binding. Particulars: glycan notation: IUPAC condensed, linker removed. In outline: (§1)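 Glycan array data came from 3228 arrays in the Consortium for Functional Glycomics database, and only arrays with an available protein sequence were kept. Glycan names were put into IUPAC-condensed notation, and columns mapping to the same glycan were averaged. The binding signal is a within-array Z-score, averaged across arrays of one protein sequence run at different concentrations or buffers and across linkers. A negative Z-score can be read as non-binding.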

Assay [2] addresses Neu5Gc(b2-6)Gal(b1-4)GlcNAc. Described as above. Conditions: glycan notation: IUPAC condensed, linker removed. In outline: as §1

Some of the results follow.

B1: Loc1 (Escherichia coli) (protein)
chain: APCALTNVGEQRGTYILKPLSMKGNLTAEKIENTGNIIECTDLQETTNAIKVHFLTQNALKFKVGSRHYIINFPFEYDGKKIELPGKSSYNLEEMLSAINFTIPYSIASVSDSSNTADIFPGTPFPLLFEIEVSSCTGNNTNCNSVRFNYNLNTILQVNLMTHHHHHH
In the case of B1, the “glycan array binding signal (z-score)” value in assay [1] is 0.745; in assay [2], -0.166.
